From publication PMC9151520 (Archives of Toxicology, 2022)

Test: in vitro
Conditions: male, Sprague Dawley, rat, microsomes, pH 7.4

CCOP(=O)(NC(C)C)Oc1ccc(SC)c(C)c1 (stereo not shown) [Fenamiphos]
half-life: 2.56 ± 0.11 min
